Experimental data taken from the supplement of paper PMC6411743.
± gives the standard deviation of the averaged measurements. The list shows a part of the results.

By UniProt entry, the sequences of proteins in these tests, tags left out. Where a name states a change or a piece, a line headed by the entry shows the natural chain unless it says otherwise.
UniProt P09651: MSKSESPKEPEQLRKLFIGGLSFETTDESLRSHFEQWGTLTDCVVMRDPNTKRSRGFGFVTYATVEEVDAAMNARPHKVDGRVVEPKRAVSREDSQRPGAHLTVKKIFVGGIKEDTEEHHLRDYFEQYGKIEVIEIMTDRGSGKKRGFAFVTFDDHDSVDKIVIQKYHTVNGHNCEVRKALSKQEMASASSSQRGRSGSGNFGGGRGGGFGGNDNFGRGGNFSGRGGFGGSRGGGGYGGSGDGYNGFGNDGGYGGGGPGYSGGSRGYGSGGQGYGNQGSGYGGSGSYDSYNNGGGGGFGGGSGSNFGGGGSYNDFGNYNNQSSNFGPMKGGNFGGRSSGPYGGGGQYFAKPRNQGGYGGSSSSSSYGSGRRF
UniProt P10109: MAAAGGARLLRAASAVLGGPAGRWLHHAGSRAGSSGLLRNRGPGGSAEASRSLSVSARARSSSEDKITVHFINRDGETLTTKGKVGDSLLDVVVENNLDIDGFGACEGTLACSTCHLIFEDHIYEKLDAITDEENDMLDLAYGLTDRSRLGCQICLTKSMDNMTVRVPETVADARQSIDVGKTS
UniProt P17858: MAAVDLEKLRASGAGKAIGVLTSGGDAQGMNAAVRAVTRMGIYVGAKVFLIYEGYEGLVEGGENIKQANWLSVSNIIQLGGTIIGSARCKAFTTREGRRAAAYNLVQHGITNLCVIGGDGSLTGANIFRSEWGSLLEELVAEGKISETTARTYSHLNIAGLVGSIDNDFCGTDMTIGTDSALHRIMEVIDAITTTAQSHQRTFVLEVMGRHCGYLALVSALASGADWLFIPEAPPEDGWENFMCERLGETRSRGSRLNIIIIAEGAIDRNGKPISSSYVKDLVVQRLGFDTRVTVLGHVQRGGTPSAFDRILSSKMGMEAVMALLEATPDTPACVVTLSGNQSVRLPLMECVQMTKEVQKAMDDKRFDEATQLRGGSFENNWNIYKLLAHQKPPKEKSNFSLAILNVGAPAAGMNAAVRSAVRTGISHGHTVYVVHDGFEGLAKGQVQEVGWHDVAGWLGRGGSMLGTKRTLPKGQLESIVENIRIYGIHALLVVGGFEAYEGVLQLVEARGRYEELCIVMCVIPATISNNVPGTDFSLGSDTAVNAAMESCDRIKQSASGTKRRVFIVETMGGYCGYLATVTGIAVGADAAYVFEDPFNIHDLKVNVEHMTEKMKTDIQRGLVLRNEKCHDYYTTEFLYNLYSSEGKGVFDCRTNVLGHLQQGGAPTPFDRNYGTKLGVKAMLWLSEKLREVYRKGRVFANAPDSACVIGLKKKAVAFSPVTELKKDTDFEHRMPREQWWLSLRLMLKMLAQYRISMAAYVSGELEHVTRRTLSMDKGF
UniProt P16219: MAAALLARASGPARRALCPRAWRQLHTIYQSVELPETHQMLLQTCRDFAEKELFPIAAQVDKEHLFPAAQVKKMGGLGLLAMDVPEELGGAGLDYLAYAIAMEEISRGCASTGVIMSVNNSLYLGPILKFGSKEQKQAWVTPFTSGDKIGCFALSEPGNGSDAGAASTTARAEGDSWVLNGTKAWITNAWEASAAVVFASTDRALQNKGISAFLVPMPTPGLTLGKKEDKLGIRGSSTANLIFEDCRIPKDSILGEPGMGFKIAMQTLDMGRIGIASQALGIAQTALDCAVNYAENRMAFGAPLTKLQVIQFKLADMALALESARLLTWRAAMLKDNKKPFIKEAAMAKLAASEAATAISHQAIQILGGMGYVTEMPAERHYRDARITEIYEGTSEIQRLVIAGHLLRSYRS
UniProt P08651, whole entry: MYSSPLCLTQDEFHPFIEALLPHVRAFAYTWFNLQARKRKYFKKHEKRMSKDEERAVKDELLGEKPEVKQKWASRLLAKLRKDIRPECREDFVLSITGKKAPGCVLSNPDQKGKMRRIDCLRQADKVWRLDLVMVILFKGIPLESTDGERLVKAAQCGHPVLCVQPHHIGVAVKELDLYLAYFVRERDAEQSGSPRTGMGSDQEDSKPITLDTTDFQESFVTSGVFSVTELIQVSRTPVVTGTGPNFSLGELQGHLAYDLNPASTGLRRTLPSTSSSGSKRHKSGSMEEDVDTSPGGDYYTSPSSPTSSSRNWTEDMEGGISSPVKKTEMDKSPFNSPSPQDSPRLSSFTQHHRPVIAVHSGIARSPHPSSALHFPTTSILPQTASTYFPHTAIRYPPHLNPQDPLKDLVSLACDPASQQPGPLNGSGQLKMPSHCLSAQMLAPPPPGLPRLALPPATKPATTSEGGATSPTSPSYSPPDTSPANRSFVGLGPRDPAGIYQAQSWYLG
UniProt P23786: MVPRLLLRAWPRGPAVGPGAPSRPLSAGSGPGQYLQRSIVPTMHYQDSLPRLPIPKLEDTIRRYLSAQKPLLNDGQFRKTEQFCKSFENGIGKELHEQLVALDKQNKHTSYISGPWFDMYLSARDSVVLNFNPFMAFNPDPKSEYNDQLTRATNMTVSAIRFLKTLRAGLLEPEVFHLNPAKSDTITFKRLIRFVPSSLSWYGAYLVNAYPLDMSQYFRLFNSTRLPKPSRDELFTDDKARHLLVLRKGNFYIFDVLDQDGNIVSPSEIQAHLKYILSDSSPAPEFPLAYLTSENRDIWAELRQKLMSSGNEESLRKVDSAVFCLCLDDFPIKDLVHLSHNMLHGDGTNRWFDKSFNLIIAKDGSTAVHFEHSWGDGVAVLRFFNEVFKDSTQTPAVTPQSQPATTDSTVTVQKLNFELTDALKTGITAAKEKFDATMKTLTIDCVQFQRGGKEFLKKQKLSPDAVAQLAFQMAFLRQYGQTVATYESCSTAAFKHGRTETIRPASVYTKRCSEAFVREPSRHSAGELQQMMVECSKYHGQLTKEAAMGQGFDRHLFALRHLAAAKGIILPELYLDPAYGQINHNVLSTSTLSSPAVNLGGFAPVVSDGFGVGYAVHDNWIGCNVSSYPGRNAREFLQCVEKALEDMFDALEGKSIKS
UniProt P16150: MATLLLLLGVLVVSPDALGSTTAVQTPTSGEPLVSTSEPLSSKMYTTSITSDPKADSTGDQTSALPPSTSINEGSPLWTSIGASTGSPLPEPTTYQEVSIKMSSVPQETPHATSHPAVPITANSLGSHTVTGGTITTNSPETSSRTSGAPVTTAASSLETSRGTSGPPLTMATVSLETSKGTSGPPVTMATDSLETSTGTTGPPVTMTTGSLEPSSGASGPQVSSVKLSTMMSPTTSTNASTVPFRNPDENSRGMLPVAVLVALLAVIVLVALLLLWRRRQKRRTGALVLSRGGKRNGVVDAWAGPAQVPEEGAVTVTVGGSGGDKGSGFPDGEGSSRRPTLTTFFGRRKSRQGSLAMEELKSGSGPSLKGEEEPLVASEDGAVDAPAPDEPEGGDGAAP
UniProt P14859: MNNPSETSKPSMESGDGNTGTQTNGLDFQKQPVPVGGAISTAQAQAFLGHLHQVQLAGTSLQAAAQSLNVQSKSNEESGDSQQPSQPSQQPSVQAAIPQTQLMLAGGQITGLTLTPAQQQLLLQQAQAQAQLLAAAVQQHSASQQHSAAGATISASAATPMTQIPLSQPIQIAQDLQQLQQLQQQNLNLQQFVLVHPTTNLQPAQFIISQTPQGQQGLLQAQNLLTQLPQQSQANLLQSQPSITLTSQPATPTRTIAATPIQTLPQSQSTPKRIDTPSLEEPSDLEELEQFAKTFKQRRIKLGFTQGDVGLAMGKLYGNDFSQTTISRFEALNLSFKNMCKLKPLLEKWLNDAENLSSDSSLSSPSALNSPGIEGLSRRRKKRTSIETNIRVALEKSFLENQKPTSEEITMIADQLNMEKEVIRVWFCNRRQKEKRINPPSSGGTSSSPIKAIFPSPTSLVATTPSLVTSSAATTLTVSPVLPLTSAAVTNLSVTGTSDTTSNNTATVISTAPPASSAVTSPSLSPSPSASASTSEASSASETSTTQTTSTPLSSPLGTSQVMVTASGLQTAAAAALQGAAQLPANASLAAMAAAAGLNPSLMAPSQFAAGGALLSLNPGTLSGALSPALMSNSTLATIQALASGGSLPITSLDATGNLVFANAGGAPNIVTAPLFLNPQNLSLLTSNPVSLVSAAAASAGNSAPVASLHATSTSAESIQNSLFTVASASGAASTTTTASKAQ
UniProt P14868: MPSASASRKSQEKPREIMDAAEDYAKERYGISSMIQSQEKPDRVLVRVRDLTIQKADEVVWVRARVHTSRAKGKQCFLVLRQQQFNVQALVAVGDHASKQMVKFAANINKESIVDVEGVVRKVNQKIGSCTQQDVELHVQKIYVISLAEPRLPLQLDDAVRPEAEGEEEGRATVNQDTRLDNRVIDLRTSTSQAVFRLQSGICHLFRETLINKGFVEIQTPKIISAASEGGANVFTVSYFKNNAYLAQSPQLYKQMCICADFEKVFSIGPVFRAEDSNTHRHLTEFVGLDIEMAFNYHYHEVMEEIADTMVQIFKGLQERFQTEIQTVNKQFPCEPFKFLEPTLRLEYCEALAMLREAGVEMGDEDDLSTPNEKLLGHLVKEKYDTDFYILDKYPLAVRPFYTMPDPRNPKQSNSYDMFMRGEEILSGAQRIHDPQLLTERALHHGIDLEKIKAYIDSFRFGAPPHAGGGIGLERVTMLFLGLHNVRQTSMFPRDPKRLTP
UniProt P19525: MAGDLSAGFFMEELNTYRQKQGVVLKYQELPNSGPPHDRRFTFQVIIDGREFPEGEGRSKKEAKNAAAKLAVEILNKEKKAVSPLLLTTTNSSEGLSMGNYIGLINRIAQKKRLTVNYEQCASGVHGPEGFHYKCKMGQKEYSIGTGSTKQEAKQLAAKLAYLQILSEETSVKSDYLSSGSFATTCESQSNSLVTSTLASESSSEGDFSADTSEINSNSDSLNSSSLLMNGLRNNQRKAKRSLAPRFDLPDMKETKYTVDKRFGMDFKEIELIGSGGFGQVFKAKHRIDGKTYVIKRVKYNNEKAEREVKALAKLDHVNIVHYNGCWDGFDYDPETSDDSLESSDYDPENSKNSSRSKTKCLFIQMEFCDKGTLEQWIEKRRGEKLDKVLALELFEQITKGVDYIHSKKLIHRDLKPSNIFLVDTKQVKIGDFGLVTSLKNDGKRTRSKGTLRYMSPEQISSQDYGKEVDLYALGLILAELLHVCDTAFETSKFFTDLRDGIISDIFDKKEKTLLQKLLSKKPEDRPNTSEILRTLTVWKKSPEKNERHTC
UniProt P20248, whole entry: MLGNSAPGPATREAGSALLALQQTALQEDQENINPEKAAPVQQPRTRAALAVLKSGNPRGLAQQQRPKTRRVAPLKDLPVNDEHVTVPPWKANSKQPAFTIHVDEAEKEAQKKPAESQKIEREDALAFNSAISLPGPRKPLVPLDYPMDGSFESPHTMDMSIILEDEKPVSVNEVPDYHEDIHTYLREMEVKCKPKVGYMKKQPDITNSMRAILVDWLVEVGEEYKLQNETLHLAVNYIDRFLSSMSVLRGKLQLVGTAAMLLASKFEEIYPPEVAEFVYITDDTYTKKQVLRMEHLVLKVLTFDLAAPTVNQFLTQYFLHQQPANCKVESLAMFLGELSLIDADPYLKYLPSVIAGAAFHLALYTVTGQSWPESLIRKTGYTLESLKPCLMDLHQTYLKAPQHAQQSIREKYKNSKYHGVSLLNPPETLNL
UniProt P0C0S5, whole entry, looked up: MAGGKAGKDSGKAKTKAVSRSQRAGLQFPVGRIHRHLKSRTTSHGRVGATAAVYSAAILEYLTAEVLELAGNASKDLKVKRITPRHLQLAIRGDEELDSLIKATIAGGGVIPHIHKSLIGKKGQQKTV
UniProt Q71UI9, whole entry, looked up: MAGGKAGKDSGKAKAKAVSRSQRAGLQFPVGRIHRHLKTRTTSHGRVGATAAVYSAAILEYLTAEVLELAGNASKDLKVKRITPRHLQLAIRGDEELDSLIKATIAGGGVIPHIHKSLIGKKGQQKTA
UniProt P21953: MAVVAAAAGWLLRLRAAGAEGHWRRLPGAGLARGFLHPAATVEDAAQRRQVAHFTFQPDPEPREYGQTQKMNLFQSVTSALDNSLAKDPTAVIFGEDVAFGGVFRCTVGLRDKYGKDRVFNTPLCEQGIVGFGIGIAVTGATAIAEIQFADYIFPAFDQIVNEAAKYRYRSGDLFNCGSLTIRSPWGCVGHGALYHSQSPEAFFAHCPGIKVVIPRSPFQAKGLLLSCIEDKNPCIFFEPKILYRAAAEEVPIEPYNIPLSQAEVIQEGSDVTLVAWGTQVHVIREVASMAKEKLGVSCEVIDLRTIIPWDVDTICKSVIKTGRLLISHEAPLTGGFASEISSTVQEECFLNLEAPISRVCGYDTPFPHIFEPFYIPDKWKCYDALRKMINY
UniProt P16455, whole entry: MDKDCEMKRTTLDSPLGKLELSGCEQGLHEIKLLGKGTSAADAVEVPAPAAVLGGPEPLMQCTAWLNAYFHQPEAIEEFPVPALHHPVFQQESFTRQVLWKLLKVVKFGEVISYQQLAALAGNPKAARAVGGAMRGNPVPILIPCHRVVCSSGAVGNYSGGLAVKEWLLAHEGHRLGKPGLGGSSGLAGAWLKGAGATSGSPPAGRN

Compound: Nc1nc2c(ncn2[C@@H]2O[C@H](COP(=O)(O)OP(=O)(O)OP(=O)(O)O)[C@@H](O)[C@H]2O)c(=O)[nH]1 [guanosine triphosphate]
Experiment: NP40-soluble protein abundance relative to vehicle (solubility fold change) (ratio); higher = more soluble protein in presence of GTP
How it was run: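 Jurkat crude lysate (Dounce-homogenised) was treated with eight concentrations from 0.1 to 10 mM for 10 min at room temperature, then 3 min at 37 °C. It was solubilised with 0.8% NP40 and benzonase (60 min, 4 °C) and ultracentrifuged, and the supernatant was TMT-labelled for LC-MS/MS. Intensities were vsn-normalised, and the value is the fold change against the NP40-processed vehicle per replicate, from three independent experiments.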

Target	NP40-soluble protein abundance (concentration: 0.1mM)	NP40-soluble protein abundance (concentration: 0.5mM)	NP40-soluble protein abundance (concentration: 1mM)	NP40-soluble protein abundance (concentration: 2mM)	NP40-soluble protein abundance (concentration: 4mM)	NP40-soluble protein abundance (concentration: 6mM)	NP40-soluble protein abundance (concentration: 8mM)	NP40-soluble protein abundance (concentration: 10mM)
UniProt P09651 and related entries	1.03 ± 0.067	1.11 ± 0.082	1.17 ± 0.11	1.16 ± 0.065	1.16 ± 0.08	1.22 ± 0.089	1.3 ± 0.22	1.25 ± 0.16
ESD (UniProt P10768)	0.959 ± 0.015	0.958 ± 0.032	0.924 ± 0.032	0.876 ± 0.025	0.882 ± 0.034	0.897 ± 0.04	0.875 ± 0.044	0.839 ± 0.059
UniProt P16298 and related entries	1.01 ± 0.033	0.969 ± 0.029	0.985 ± 0.063	0.955 ± 0.036	0.959 ± 0.066	0.912 ± 0.092	0.974 ± 0.033	0.958 ± 0.062
FDX1 (UniProt P10109)	0.939 ± 0.088	0.94 ± 0.098	0.875 ± 0.065	0.872 ± 0.094	0.87 ± 0.11	0.857 ± 0.074	0.843 ± 0.11	0.859 ± 0.12
PFKL (UniProt P17858)	1.07 ± 0.087	1.13 ± 0.15	1.06 ± 0.12	1.12 ± 0.17	1.1 ± 0.15	1.09 ± 0.18	1.05 ± 0.1	1.04 ± 0.13
ACADS (UniProt P16219)	1.05 ± 0.036	1.06 ± 0.047	1.02 ± 0.019	0.993 ± 0.011	1.02 ± 0.045	0.961 ± 0.035	0.964 ± 0.044	0.918 ± 0.054
HEXB (UniProt P07686)	0.984 ± 0.044	0.953 ± 0.018	0.982 ± 0.026	0.936 ± 0.057	0.945 ± 0.032	0.937 ± 0.051	0.939 ± 0.036	0.908 ± 0.062
UniProt P08651 and related entries	1.05 ± 0.083	1.04 ± 0.05	1.08 ± 0.025	1.01 ± 0.06	1.03 ± 0.043	1 ± 0.047	1.09 ± 0.055	1.04 ± 0.093
CPT2 (UniProt P23786)	0.997 ± 0.02	1.02 ± 0.033	0.901 ± 0.011	0.915 ± 0.038	0.865 ± 0.011	0.882 ± 0.031	0.847 ± 0.016	0.827 ± 0.044
SPN (UniProt P16150)	0.771 ± 0.084	0.704 ± 0.11	0.744 ± 0.14	0.736 ± 0.12	0.771 ± 0.13	0.738 ± 0.15	0.676 ± 0.1	0.785 ± 0.1
PTPN1 (UniProt P18031)	0.9959 ± 0.0073	1 ± 0.018	0.944 ± 0.03	0.942 ± 0.04	0.908 ± 0.064	0.913 ± 0.043	0.906 ± 0.048	0.915 ± 0.091
DLAT (UniProt P10515)	1.11 ± 0.22	1.28 ± 0.39	1.47 ± 0.56	1.85 ± 0.82	2.12 ± 1.1	2.06 ± 1.1	1.98 ± 0.98	1.91 ± 0.99
UniProt P14859 and related entries	1.01 ± 0.12	0.91 ± 0.12	1.01 ± 0.14	1.04 ± 0.24	1.02 ± 0.28	1.03 ± 0.26	1.01 ± 0.26	1.04 ± 0.2
SDHB (UniProt P21912)	1.01 ± 0.054	0.898 ± 0.046	1.03 ± 0.071	0.899 ± 0.063	1 ± 0.074	0.894 ± 0.044	0.972 ± 0.09	0.863 ± 0.049
DARS (UniProt P14868)	1.06 ± 0.045	1.12 ± 0.14	1.01 ± 0.1	1.12 ± 0.21	1.09 ± 0.17	1.12 ± 0.22	1.06 ± 0.14	1.06 ± 0.17
UniProt P19525 and related entries	0.968 ± 0.043	1.03 ± 0.046	0.937 ± 0.048	0.975 ± 0.014	0.978 ± 0.029	0.972 ± 0.027	0.962 ± 0.067	0.954 ± 0.073
UniProt P11171 and related entries	0.989 ± 0.016	0.98 ± 0.019	0.9569 ± 0.0056	0.924 ± 0.016	0.943 ± 0.017	0.94 ± 0.033	0.9392 ± 0.0012	0.923 ± 0.047
CCNA2 (UniProt P20248)	0.924 ± 0.078	0.935 ± 0.12	0.987 ± 0.11	0.959 ± 0.15	0.97 ± 0.13	0.987 ± 0.15	0.998 ± 0.11	1.01 ± 0.14
P0C0S5 and related entries (UniProt Q71UI9+P0C0S5)	0.898 ± 0.042	0.919 ± 0.033	1.11 ± 0.065	1.11 ± 0.06	1.12 ± 0.06	1.25 ± 0.094	1.25 ± 0.079	1.57 ± 0.18
ATP6V1C1 (UniProt P21283)	0.973 ± 0.01	0.987 ± 0.018	0.9441 ± 0.0043	0.948 ± 0.023	0.939 ± 0.025	0.951 ± 0.01	0.93 ± 0.011	0.907 ± 0.015
BCKDHB (UniProt P21953)	1.03 ± 0.048	1.07 ± 0.093	1.06 ± 0.14	1.07 ± 0.15	1.07 ± 0.15	1.1 ± 0.21	1.04 ± 0.11	1 ± 0.14
MGMT (UniProt P16455)	0.912 ± 0.037	0.896 ± 0.027	1 ± 0.027	0.977 ± 0.045	0.955 ± 0.033	0.945 ± 0.039	0.918 ± 0.088	0.984 ± 0.034
EIF2S2 (UniProt P20042)	0.967 ± 0.061	0.994 ± 0.082	1.02 ± 0.096	1 ± 0.1	1.01 ± 0.092	1.03 ± 0.11	1.05 ± 0.079	1.04 ± 0.091
SP100 (UniProt P23497)	0.94 ± 0.066	0.917 ± 0.034	0.907 ± 0.041	0.882 ± 0.066	0.869 ± 0.056	0.888 ± 0.044	0.918 ± 0.059	0.927 ± 0.068
H2AFX (UniProt P16104)	0.94 ± 0.014	0.955 ± 0.036	1.07 ± 0.068	1.13 ± 0.075	1.2 ± 0.088	1.48 ± 0.16	1.44 ± 0.13	2.26 ± 0.46
UniProt P15529 and related entries	0.955 ± 0.056	0.943 ± 0.045	0.956 ± 0.063	0.951 ± 0.12	0.91 ± 0.1	0.911 ± 0.069	0.932 ± 0.094	0.936 ± 0.039
UniProt P08243 and related entries	1.02 ± 0.057	1.09 ± 0.047	0.953 ± 0.034	0.979 ± 0.012	0.919 ± 0.052	0.944 ± 0.015	0.947 ± 0.027	0.925 ± 0.048

Laid out differently: results already given.
H2AFX (UniProt P16104)
  NP40-soluble protein abundance (concentration: 0.1mM): 0.94 ± 0.014
  NP40-soluble protein abundance (concentration: 0.5mM): 0.955 ± 0.036
  NP40-soluble protein abundance (concentration: 1mM): 1.07 ± 0.068
  NP40-soluble protein abundance (concentration: 2mM): 1.13 ± 0.075
  NP40-soluble protein abundance (concentration: 4mM): 1.2 ± 0.088
  NP40-soluble protein abundance (concentration: 6mM): 1.48 ± 0.16
  NP40-soluble protein abundance (concentration: 8mM): 1.44 ± 0.13
  NP40-soluble protein abundance (concentration: 10mM): 2.26 ± 0.46
UniProt P15529 and related entries
  NP40-soluble protein abundance (concentration: 0.1mM): 0.955 ± 0.056
  NP40-soluble protein abundance (concentration: 0.5mM): 0.943 ± 0.045
  NP40-soluble protein abundance (concentration: 1mM): 0.956 ± 0.063
  NP40-soluble protein abundance (concentration: 2mM): 0.951 ± 0.12
  NP40-soluble protein abundance (concentration: 4mM): 0.91 ± 0.1
  NP40-soluble protein abundance (concentration: 6mM): 0.911 ± 0.069
  NP40-soluble protein abundance (concentration: 8mM): 0.932 ± 0.094
  NP40-soluble protein abundance (concentration: 10mM): 0.936 ± 0.039
